According to the supplement of paper PMC10849652:
Some of the results follow.

Sequences of proteins named here, by UniProt entry; tags and fusion partners are left off. A change or cut given only in a name is not applied to a line headed by its entry.
UniProt Q969S8: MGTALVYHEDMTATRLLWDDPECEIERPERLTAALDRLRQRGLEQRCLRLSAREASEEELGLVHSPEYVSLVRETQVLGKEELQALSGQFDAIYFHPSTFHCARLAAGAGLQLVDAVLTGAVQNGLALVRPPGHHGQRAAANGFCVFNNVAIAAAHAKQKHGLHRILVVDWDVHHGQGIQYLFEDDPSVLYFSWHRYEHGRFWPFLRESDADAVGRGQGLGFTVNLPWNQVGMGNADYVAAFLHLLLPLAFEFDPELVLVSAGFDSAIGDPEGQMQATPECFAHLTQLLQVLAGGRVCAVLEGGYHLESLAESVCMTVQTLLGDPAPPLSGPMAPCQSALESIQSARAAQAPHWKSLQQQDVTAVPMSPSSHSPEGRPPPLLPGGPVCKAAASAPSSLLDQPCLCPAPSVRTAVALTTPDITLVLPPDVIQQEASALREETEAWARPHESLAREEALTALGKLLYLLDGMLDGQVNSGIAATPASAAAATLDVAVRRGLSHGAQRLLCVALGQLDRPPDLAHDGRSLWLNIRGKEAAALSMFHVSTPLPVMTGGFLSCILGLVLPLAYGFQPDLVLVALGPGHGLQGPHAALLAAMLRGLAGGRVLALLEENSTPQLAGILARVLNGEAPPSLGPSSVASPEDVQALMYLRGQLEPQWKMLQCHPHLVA
UniProt P16401, whole entry, looked up: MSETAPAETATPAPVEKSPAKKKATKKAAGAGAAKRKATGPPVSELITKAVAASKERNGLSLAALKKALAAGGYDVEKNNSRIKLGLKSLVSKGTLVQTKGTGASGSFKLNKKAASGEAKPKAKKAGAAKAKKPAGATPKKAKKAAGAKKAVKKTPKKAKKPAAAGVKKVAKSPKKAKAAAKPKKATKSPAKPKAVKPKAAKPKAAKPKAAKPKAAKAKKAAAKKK
UniProt Q96CS2: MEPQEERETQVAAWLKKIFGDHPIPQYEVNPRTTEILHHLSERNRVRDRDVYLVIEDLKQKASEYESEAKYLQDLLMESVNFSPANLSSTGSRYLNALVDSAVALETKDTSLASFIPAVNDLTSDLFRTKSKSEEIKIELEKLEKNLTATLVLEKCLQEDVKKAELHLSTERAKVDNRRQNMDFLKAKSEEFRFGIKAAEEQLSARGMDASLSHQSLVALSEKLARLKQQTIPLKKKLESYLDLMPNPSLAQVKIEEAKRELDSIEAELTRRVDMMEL
UniProt Q13547, whole entry, looked up: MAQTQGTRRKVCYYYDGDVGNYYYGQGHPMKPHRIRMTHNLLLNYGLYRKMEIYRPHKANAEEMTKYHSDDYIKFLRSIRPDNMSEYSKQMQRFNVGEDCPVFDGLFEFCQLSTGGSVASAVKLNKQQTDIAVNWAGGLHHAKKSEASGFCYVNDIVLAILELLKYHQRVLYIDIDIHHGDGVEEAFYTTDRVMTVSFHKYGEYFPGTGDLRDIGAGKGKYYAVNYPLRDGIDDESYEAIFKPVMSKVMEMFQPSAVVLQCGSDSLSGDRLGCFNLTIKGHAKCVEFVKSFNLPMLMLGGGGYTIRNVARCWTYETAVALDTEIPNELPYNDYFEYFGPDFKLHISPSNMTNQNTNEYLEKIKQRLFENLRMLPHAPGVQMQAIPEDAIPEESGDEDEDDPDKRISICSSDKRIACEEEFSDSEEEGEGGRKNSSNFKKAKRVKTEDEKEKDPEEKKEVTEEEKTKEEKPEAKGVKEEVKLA
UniProt Q9BSH5: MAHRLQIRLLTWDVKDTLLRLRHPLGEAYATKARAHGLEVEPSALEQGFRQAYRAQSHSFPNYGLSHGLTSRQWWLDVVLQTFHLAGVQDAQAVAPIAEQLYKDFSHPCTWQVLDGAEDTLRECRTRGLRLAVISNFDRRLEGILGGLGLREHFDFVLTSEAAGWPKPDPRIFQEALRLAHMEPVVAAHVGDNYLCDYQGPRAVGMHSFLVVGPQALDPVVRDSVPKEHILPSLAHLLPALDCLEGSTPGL
UniProt Q9BQS7: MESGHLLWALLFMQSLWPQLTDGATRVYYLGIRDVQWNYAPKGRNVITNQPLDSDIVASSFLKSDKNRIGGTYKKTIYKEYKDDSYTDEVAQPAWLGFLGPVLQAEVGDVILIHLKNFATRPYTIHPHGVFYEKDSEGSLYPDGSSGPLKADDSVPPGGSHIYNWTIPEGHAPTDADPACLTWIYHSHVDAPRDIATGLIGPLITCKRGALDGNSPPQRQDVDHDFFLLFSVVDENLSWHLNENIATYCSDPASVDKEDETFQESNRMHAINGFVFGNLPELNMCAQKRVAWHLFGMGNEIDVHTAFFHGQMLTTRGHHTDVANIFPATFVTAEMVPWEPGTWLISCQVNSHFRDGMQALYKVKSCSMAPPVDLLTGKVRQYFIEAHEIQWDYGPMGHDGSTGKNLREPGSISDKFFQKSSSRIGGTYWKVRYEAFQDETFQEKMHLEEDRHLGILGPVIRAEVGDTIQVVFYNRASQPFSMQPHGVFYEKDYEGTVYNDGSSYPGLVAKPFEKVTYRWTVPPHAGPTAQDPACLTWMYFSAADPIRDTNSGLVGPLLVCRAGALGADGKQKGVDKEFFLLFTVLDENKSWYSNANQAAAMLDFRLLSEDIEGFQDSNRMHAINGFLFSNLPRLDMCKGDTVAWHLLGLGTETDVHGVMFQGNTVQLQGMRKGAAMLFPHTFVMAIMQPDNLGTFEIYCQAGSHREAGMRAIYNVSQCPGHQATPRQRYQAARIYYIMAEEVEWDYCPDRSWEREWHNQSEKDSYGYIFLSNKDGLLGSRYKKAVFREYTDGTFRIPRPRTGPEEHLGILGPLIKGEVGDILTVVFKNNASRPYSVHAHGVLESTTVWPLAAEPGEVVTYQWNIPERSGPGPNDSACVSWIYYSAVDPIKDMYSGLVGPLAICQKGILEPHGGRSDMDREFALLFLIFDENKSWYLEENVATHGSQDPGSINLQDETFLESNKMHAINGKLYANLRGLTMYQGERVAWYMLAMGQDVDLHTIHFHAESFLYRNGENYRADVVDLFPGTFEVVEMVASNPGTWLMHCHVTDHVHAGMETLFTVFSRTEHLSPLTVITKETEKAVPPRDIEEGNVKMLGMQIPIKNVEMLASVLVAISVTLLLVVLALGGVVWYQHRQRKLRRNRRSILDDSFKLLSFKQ
UniProt A4D1E9: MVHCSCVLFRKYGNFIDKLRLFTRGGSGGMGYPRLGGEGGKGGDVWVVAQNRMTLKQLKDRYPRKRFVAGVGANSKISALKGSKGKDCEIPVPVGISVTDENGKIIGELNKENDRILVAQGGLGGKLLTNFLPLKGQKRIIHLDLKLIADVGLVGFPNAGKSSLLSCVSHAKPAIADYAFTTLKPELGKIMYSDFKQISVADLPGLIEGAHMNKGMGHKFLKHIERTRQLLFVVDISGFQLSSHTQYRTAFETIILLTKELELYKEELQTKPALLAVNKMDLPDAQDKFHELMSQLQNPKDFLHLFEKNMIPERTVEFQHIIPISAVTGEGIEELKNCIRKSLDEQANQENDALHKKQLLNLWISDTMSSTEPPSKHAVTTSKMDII
UniProt Q12789: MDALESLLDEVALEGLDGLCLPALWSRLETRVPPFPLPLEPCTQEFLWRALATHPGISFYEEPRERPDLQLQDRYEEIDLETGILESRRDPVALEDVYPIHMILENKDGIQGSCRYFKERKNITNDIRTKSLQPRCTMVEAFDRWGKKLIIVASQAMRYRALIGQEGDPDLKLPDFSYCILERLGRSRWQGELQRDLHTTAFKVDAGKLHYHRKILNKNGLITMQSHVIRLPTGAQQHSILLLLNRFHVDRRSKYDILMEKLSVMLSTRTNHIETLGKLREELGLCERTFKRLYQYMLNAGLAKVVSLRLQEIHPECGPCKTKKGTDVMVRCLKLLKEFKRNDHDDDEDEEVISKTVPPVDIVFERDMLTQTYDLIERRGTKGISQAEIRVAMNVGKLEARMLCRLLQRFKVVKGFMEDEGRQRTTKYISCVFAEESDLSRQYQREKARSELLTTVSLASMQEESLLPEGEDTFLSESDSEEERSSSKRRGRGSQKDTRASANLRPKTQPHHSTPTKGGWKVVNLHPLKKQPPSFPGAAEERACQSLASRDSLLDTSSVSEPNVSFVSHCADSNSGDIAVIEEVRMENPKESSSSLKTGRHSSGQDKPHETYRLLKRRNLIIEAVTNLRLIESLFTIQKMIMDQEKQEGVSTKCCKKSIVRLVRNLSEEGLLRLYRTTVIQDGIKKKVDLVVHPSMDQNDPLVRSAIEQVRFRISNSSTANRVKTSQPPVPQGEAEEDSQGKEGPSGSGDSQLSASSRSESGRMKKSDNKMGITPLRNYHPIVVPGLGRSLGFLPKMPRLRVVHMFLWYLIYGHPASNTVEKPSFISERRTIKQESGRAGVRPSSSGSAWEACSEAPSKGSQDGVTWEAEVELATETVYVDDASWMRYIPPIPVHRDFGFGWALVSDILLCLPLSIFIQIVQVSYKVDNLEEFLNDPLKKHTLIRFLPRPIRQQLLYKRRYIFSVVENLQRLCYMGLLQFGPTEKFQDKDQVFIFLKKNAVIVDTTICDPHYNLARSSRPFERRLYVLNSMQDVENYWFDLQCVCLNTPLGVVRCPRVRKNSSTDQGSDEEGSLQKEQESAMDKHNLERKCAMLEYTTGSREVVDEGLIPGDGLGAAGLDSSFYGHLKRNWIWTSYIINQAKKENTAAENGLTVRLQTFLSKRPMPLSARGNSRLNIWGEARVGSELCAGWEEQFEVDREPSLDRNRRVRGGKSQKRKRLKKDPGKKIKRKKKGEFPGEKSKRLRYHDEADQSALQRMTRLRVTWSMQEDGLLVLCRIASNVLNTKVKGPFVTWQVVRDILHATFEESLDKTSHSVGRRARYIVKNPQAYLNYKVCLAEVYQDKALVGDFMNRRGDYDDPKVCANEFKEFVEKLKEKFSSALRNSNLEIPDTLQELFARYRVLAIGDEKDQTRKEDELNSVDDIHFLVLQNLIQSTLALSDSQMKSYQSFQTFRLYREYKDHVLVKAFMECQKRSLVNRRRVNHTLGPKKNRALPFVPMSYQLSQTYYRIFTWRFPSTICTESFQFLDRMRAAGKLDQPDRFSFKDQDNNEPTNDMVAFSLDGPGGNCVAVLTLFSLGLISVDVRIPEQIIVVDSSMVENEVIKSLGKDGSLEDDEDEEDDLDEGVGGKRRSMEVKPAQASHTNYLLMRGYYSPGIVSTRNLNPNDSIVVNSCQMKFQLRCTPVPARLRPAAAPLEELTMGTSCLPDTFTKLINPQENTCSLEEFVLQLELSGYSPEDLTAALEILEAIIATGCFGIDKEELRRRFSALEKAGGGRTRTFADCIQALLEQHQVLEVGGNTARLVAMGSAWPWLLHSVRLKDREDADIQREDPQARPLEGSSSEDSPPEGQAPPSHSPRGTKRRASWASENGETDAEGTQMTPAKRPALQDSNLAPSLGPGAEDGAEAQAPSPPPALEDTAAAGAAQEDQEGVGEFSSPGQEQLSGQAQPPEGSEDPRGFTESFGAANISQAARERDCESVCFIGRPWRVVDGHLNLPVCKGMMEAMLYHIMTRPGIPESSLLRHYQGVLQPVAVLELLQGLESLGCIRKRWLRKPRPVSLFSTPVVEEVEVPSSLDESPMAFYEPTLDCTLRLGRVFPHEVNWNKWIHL
UniProt Q92769, whole entry, looked up: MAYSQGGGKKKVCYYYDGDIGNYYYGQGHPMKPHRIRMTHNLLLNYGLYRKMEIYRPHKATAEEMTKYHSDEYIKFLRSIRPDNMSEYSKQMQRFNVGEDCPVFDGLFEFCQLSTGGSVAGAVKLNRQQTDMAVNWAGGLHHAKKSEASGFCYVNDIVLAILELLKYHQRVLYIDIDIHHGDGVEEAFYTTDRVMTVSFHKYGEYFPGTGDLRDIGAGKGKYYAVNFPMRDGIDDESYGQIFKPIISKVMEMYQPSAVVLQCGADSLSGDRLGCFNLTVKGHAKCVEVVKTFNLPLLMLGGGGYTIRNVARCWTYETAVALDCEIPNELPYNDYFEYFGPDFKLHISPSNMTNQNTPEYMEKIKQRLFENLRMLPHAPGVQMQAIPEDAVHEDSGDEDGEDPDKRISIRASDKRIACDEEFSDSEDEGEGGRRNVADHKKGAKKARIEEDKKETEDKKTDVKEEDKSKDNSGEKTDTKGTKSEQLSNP
UniProt P21266: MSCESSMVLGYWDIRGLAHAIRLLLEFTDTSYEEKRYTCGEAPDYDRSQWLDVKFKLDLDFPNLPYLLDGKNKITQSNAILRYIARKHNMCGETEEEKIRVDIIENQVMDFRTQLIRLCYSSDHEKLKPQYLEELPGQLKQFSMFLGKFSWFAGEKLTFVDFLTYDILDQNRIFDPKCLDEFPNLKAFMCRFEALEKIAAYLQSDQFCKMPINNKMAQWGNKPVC
UniProt Q9Y2Q3: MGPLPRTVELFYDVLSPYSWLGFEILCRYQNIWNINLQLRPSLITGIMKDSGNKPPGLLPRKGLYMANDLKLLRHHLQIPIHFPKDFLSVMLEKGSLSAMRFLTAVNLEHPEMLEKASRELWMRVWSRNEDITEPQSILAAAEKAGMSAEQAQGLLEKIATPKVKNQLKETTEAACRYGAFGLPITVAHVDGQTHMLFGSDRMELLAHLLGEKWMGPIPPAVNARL

Tests used:
Test in all cases: log2 fold change, soluble protein after heating vs DMSO (PISA); higher = thermal stabilisation; K562 cells, 10 uM, 30 min; active = over 0.2 and 3.5 SD of the protein, either way, in both replicates (recomputed)
bafetinib = compound: Cc1ccc(NC(=O)c2ccc(CN3CC[C@H](N(C)C)C3)c(C(F)(F)F)c2)cc1Nc1nccc(-c2cncnc2)n1 [bafetinib]
Procedure, shortened: (§1)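 Quantification of soluble protein used TMTpro 16plex LC-MS/MS, with channel sums equalised. Samples were the supernatant after 21,000xg for 90 min of pooled aliquots from K562 cells (2×10^6 cells/mL) treated with 10 μM compound for 30 min, heated for 3 min over 48°C-58°C, and extracted in PBS with 0.5% NP-40 at 4°C. Values, from duplicates, describe thermal stability against control samples on a log2 fold-change scale.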

[1] = compound: Cc1cccc(CC(=O)N2CCc3c2ccc(-c2cn(C)c4ncnc(N)c24)c3F)n1
Procedure, shortened: as §1

nilotinib = compound: Cc1cn(-c2cc(NC(=O)c3ccc(C)c(Nc4nccc(-c5cccnc5)n4)c3)cc(C(F)(F)F)c2)cn1 [nilotinib]
Procedure, shortened: as §1

[2] = compound: Cc1nc(Nc2n[nH]c3c2CN(C(=O)N[C@H](CN(C)C)c2ccccc2)C3(C)C)c2sccc2n1
Procedure, shortened: as §1

dasatinib = compound: Cc1nc(Nc2ncc(C(=O)Nc3c(C)cccc3Cl)s2)cc(N2CCN(CCO)CC2)n1 [dasatinib]
Procedure, shortened: as §1

[3] = compound: Cc1ncc(-c2ccnc(Nc3ccc(S(C)(=O)=O)cc3)n2)n1C(C)C
Procedure, shortened: as §1

[4] = compound: Cn1cc(-c2ccc3c(c2)CCN3C(=O)Cc2cccc(C(F)(F)F)c2)c2c(N)ncnc21
Procedure, shortened: as §1

[5] = compound: Cn1cc(-c2ccc3nnc(C(F)(F)c4ccc5ncccc5c4)n3n2)cn1
Procedure, shortened: as §1

tipifarnib = compound: Cn1cncc1[C@@](N)(c1ccc(Cl)cc1)c1ccc2c(c1)c(-c1cccc(Cl)c1)cc(=O)n2C [tipifarnib]
Procedure, shortened: as §1

mubritinib = compound: FC(F)(F)c1ccc(/C=C/c2nc(COc3ccc(CCCCn4ccnn4)cc3)co2)cc1 [mubritinib]
Procedure, shortened: as §1

Measured: log2 fold change

GTF2F2 (UniProt P13984)
inactive: bafetinib -0.004 | [1] 0.018 | nilotinib 0 | [2] 0.005 | dasatinib -0.049 | [3] -0.013 | [4] 0.029 | [5] -0.002 | tipifarnib -0.004 | mubritinib 0.027

HDAC10 (UniProt Q969S8)
inactive: bafetinib -0.255 | [1] -0.073 | nilotinib -0.118 | [2] -0.075 | dasatinib -0.027 | [3] -0.08 | [4] 0.071 | [5] 0.001 | tipifarnib 0.046 | mubritinib 0.116

H1-5 (UniProt P16401)
inactive: bafetinib 0.333 | [1] -0.063 | nilotinib 0.05 | [2] 0.049 | dasatinib 0.178 | [3] -0.105 | [4] -0.322 | [5] -0.131 | tipifarnib 0.094 | mubritinib -0.134

HACD3 (UniProt Q9P035)
inactive: bafetinib -0.052 | [1] 0.006 | nilotinib -0.081 | [2] 0.014 | dasatinib 0.013 | [3] 0.007 | [4] -0.011 | [5] 0.05 | tipifarnib -0.051 | mubritinib 0.012

HAUS1 (UniProt Q96CS2)
inactive: bafetinib -0.17 | [1] 0 | nilotinib 0.003 | [2] -0.119 | dasatinib 0.083 | [3] 0.058 | [4] 0.047 | [5] -0.014 | tipifarnib -0.006 | mubritinib -0.005

HECTD1 (UniProt Q9ULT8)
inactive: bafetinib 0.025 | [1] 0.029 | nilotinib -0.111 | [2] -0.141 | dasatinib -0.104 | [3] -0.022 | [4] -0.058 | [5] -0.032 | tipifarnib -0.088 | mubritinib -0.144

Looked up one by one from the list above, 2 records:
H1-5 (UniProt P16401)
inactive: bafetinib 0.333 | [1] -0.063 | nilotinib 0.05 | [2] 0.049 | dasatinib 0.178 | [3] -0.105 | [4] -0.322 | [5] -0.131 | tipifarnib 0.094 | mubritinib -0.134

HACD3 (UniProt Q9P035)
inactive: bafetinib -0.052 | [1] 0.006 | nilotinib -0.081 | [2] 0.014 | dasatinib 0.013 | [3] 0.007 | [4] -0.011 | [5] 0.05 | tipifarnib -0.051 | mubritinib 0.012

Further records

HDAC1 (UniProt Q13547)
inactive: bafetinib 0.306 | [1] -0.046 | nilotinib -0.023 | [2] -0.021 | dasatinib -0.091 | [3] -0.055 | [4] -0.002 | [5] -0.009 | tipifarnib -0.078 | mubritinib -0.025

HDHD3 (UniProt Q9BSH5)
inactive: bafetinib -0.048 | [1] 0.076 | nilotinib -0.031 | [2] 0.02 | dasatinib 0.094 | [3] -0.052 | [4] 0.059 | [5] 0.068 | tipifarnib 0.011 | mubritinib 0.007

HEPH isoform 3 (UniProt Q9BQS7)
inactive: bafetinib -0.08 | [1] -0.023 | nilotinib 0.009 | [2] -0.004 | dasatinib -0.005 | [3] -0.001 | [4] -0.028 | [5] -0.036 | tipifarnib 0.055 | mubritinib 0.011

GTPBP10 (UniProt A4D1E9)
inactive: bafetinib 0.124 | [1] 0.038 | nilotinib -0.288 | [2] -0.009 | dasatinib 0.007 | [3] -0.176 | [4] -0.092 | [5] -0.082 | tipifarnib 0.089 | mubritinib -0.223

GTF3C1 (UniProt Q12789)
inactive: bafetinib 0.068 | [1] 0.24 | nilotinib -0.357 | [2] 0.117 | dasatinib 0.017 | [3] -0.213 | [4] -0.256 | [5] 0.102 | tipifarnib 0.025 | mubritinib 0.079

GTPBP4 (UniProt Q9BZE4)
inactive: bafetinib -0.023 | [1] -0.153 | nilotinib 0.238 | [2] 0.565 | dasatinib 0.024 | [3] -0.095 | [4] -0.221 | [5] -0.066 | mubritinib -0.353

HDAC2 (UniProt Q92769)
inactive: bafetinib 0.137 | [1] -0.046 | nilotinib -0.01 | [2] 0.009 | dasatinib 0.007 | [3] -0.002 | [4] -0.01 | [5] -0.001 | tipifarnib 0.027 | mubritinib 0.015

GSTM3 (UniProt P21266)
inactive: bafetinib -0.038 | [1] -0.036 | nilotinib -0.013 | [2] 0.011 | dasatinib -0.094 | [3] 0.044 | [4] 0.104 | tipifarnib 0.099 | mubritinib -0.005

GSTK1 (UniProt Q9Y2Q3)
inactive: bafetinib 0.023 | [1] 0.018 | nilotinib -0.008 | [2] -0.018 | dasatinib -0.051 | [3] 0.013 | [4] 0.118 | [5] 0.047 | tipifarnib -0.015 | mubritinib 0.055
